The other results are listed elsewhere or left out. Most values lie at the level of the controls, where differences are scatter.
Key:
ppGalNAc-T3 sensor = assay: T3 sensor activation Q score (MG/GFP ratio z-score vs DMSO controls) (SD units); higher = more sensor activation (inhibition of ppGalNAc-T3 glycosylation); details: HEK293 sensor cells; 10 µM; 6 h
Procedure: (§1)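 Cells were treated with compound at 10 uM for 6 h, then MG/GFP ratio was read by flow cytometry (10,000 cells per well, duplicate wells). Q = (R - R_neg)/SD_neg relative to DMSO vehicle controls; the signal rises when the glycosyltransferase is inhibited.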

ppGalNAc-T2 sensor = assay: T2 sensor activation Q score (MG/GFP ratio z-score vs DMSO controls) (SD units); higher = more sensor activation (inhibition of ppGalNAc-T2 glycosylation); details: HEK293 sensor cells; 10 µM; 6 h
Procedure: as §1

Structure (SMILES)	T3 sensor activation Q score (ppGalNAc-T3 sensor)	T2 sensor activation Q score (ppGalNAc-T2 sensor)
O=C(NCCCO)c1ccc(Cl)cc1	-0.425	0.295
NC(=O)COc1ccccc1O	-0.7	-1.84
CCOC(=O)N1CCN(Cc2cccc(Cl)c2Cl)CC1	-0.03	0.26
CCOc1cc(CN2CCCC(C(=O)N(CC)CC)C2)ccc1O (configuration not stated)	-0.16	0.325
O=[N+]([O-])c1ccc(/C=C/c2ccc(O)cc2)cc1	1.08	-0.955
CCCNc1nc(OC)nc(OC)n1	-0.625	-0.05
NNC(=O)c1ccc(C(=O)O)cc1	1.65	0.35
Cc1ccc(NC(=O)COc2ccc([N+](=O)[O-])cc2C)c(Br)c1	-0.345	0.69
Cc1ccc(S(=O)(=O)CC(N)=O)cc1	-1.23	-1.64
Nc1nnc(Cc2ccc([N+](=O)[O-])cc2)s1	0.485	-1.16
O=C(c1ccc(F)cc1)N1CCN(C(=O)c2ccc(F)cc2)CC1	-0.115	-1.1
CC1CCCC(C)N1C(=O)Nc1ccccc1 (configuration not stated)	-0.495	0.35
c1ccc(-c2nnn(C34CC5CC(CC(C5)C3)C4)n2)cc1	-0.035	0.03
COc1ccc(-c2nnc(N)s2)cc1	0.21	-0.465
CCc1nc(NN)c2c3c(sc2n1)CCC3	1.15	0.745
O=C(O)C1CCCCN1C(=O)c1ccccc1 (configuration not stated)	-0.35	-0.89
Cc1ccc(S(=O)(=O)c2ccc(Oc3cccc(N)c3)cc2)cc1	0.75	0.49
COc1ccc(CN2CCN(c3ccc(F)cc3)CC2)c(OC)c1C	0.435	0.21
O=S(=O)(Nc1ccc(O)c(Br)c1)c1ccc(Cl)cc1	-0.135	0.205

Structure (SMILES)	T3 sensor activation Q score (ppGalNAc-T3 sensor)	T2 sensor activation Q score (ppGalNAc-T2 sensor)
c1cncc(-c2nc3c4c5c(sc4ncn3n2)CCCC5)c1	-0.65	2.09
O=C1c2ccc(F)cc2C(=O)N1CCO	0.02	-0.95
Cc1nc2nc(N)[nH]n2c(=O)c1Cc1ccccc1	0.88	-0.69
COc1ccc(N2CCN(Cc3ccc(OC)c(C)c3OC)CC2)cc1	0.26	1.16
O=C(C1CCN(S(=O)(=O)c2ccccc2)CC1)N1CCN(Cc2ccccc2)CC1	-0.45	0.105
CCN(CCN(C)C)Cc1cccc(Br)c1	0.2	0.365
O=[N+]([O-])c1ccc(CN2CCN(C/C=C/c3ccccc3)CC2)cc1	0.325	-0.34
Cc1c(NC(=O)c2cccc([N+](=O)[O-])c2)c(=O)n(-c2ccccc2)n1C	-0.4	-0.55
COc1ccc(N2CCOCC2)cc1	0.305	-1.01
Cc1ccccc1NC1=C(N2CCOCC2)C(=O)c2ccccc2C1=O	-0.535	-0.565
COc1cc(OC)c(OC)cc1CN1CCN(c2cc(C)ccc2C)CC1	0.765	0.64
COc1ccccc1NC(=O)c1cccs1	-0.65	-0.505
CS(=O)(=O)c1nc2ccccc2[nH]1	0.295	0.81
O=[N+]([O-])c1ccc(-c2cn3cc(Br)ccc3n2)cc1	0.345	-0.43
O=C(c1ccccc1F)n1nnc2ccccc21	0.925	1.45
O=C(Nc1ccccc1)Nc1cccc(Cl)c1	0.91	-0.905
Cc1ccc(C(c2ccccc2)C2([N+](=O)[O-])C(=O)c3ccccc3C2=O)c(C)c1 (configuration not stated)	-0.575	0.44
CCN(CC)C(=O)COc1ccc(Br)cc1Cl	0.425	0.02
NC12CC3CC(C1)CC(CC(=O)O)(C3)C2	0.4	-0.77

Structure (SMILES)	T3 sensor activation Q score (ppGalNAc-T3 sensor)	T2 sensor activation Q score (ppGalNAc-T2 sensor)
Cc1cc(Br)ccc1NC(=O)CCc1ccccc1	-1.03	-1.18
CC(=O)c1ccc(N2CCN(CC(c3ccccc3)c3ccccc3)CC2)cc1	-0.005	0.265
CN(Cc1ccccc1)Cc1cccnc1	0.765	-0.505
CC(C)NC(=O)Nc1cccc(Cl)c1	0.06	-0.69
C=CCOc1cc(C)nc(-c2ccccc2O)n1	-0.355	1.06
CC1=C([N+](=O)[O-])C(c2ccccc2Cl)NC(=O)N1 (configuration not stated)	0.3	-0.03
NC(=O)C(=O)Nc1nc(-c2ccccc2)cs1	-1.34	-0.74
CC(=O)c1cccc(NS(=O)(=O)c2ccc(Cl)cc2)c1	0.22	0.19
Oc1cccnc1-c1ccccc1	-0.195	0.62
O=S(=O)(c1cccc(Cl)c1Cl)N1CCCCC1	-0.045	0.03
Clc1ccc(CSc2nccn2Cc2ccccc2)cc1	0.23	0.08
O=C1c2ccccc2C(=O)N1n1cnnc1	-0.255	-0.995
Cc1cc(=O)n2ccc([N+](=O)[O-])c(O)c2n1	0.75	-0.41
Cc1ccccc1N1CCN(Cc2ccc(Br)o2)CC1	0.265	0.155
CC(C)(C)S(=O)(=O)c1ccsc1S(C)(=O)=O	0.85	1.53
O=C(O)c1ccccc1Sc1ccccc1C(=O)O	-0.05	-0.93
O=C1C(=O)N(CCO)C(c2ccccc2)C1=C(O)c1ccccc1 (configuration not stated)	-0.905	0.54
Cc1ccc(NCC(=O)c2ccc([N+](=O)[O-])cc2)cc1	0.705	-0.155

3 of the compounds above, in markdown.

| Structure (SMILES) | T3 sensor activation Q score (ppGalNAc-T3 sensor) | T2 sensor activation Q score (ppGalNAc-T2 sensor) |
| --- | --- | --- |
| Cc1ccccc1N1CCN(Cc2ccc(Br)o2)CC1 | 0.265 | 0.155 |
| CC(C)(C)S(=O)(=O)c1ccsc1S(C)(=O)=O | 0.85 | 1.53 |
| O=C(O)c1ccccc1Sc1ccccc1C(=O)O | -0.05 | -0.93 |

— the supplement of paper PMC5407854, “Inhibitor of ppGalNAc-T3-mediated O-glycosylation blocks cancer cell invasiveness and lowers FGF23 levels” (eLife, 2017)
